Measurements reported in publication PMC6650552.
Read-outs that look alike come from different tables or passages of the source. Results are given in words; binding and its absence hold for the method and conditions named. In cells and extracts the contact can be indirect. Here binding means that the protein was enriched with, or labelled near, the bait; the list need not be complete. Where a sequence is shown, tags or fusion partners need not be part of it.

Sequences of proteins named here, by UniProt entry; tags and fusion partners are left off. Residues count along the entry.
UniProt P14756, residues 24-498: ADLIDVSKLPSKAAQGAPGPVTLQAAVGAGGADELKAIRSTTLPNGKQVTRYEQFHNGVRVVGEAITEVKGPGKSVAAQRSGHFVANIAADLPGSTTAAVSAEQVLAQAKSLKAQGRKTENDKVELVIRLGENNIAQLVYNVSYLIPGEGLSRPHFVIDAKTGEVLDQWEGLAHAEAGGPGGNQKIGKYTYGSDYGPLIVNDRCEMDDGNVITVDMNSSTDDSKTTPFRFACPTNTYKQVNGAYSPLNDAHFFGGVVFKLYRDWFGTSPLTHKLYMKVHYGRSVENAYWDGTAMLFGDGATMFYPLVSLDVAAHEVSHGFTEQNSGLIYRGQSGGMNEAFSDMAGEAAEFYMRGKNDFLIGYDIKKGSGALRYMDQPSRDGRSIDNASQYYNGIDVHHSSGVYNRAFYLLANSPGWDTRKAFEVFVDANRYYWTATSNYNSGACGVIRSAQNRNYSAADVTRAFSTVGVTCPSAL
UniProt Q9I4X0: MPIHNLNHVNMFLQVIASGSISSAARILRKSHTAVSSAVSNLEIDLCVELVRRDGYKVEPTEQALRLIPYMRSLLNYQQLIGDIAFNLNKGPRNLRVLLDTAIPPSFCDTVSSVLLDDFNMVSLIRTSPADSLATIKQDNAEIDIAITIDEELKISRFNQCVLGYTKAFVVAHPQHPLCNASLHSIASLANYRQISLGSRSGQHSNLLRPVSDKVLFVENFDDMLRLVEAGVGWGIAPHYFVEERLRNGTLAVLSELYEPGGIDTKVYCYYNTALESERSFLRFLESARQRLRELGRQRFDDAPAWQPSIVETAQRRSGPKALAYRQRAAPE

Experiments:
[1] = target: T1, GST-AnvM (P. aeruginosa) (UniProt Q9HXD2); experiment: affinity purification with mass spectrometry; GST pulldown screen: cleared lysate of stationary-phase P. aeruginosa cells incubated with 40 ug purified GST-AnvM overnight at 4°C, glutathione-Sepharose beads, washed five times with TEN buffer (100 mM Tris-Cl pH 8.0, 10 mM EDTA, 300 mM NaCl); bands cut from a Coomassie-stained gel, trypsin, MALDI mass spectrometry; only the target purified
T1 sequence: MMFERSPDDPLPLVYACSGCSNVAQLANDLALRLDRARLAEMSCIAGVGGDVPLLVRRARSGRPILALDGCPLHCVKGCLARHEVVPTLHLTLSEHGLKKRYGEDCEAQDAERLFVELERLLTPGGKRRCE

[2] = target: T1, GST-AnvM (P. aeruginosa); experiment: as above; remark: listed apart in the source

Row | Molecule | binding [1] | binding [2]
1 | LasB (from UniProt P14756 24-498) | binds | 
2 | MvfR (from UniProt Q9I4X0 1-332) | binds | 
3 | Anr (protein, UniProt P23926 1-244) MAETIKVRALPQAHCKDCSLAPLCLPLSLTVEDMDSLDEIVKRGRPLKKGEFLFRQGDPFGSVFAVRSGALKTFSITDAGEEQITGFHLPSELVGLSGMDTETYPVSAQALETTSVCEIPFERLDELSEQLPQLRRQLMRLMSREIRDDQQMMLLLSKKTADERIATFLVNLSARFRARGFSAQQFRLAMSRNEIGNYLGLAVETVSRVFTRFQQNGLISAEGKEVHILDSIELCALAGGQLEG |  | binds
